Several values for one entry are separate records, joined by “and”; a condition that tells them apart may be missing. Identical values can stand only once. In all, about 580,000 compounds went through this assay and about 6,100 (1.1%) were called active. The inconclusive results got no clear call from the source; some entries with a clear call stand among them for comparison. The call rests on the fitted dose curve; in most records, active means well fitted inhibition curve with a large enough effect; inconclusive means small, poorly fitted or top-dose-only effect, or another doubt; inactive means no such curve, though single readings can be large or run the other way. Potencies of inconclusive entries are doubtful fits and often do not repeat.
Each compound was assayed against Polyunsaturated fatty acid lipoxygenase ALOX12 (Homo sapiens) (UniProt P18054) (assay: Primary qHTS assay for inhibitors of human arachidonate 12S-lipoxygenase (ALOX12): Round 2). Details: purified 12hLO, xylenol orange hydroperoxide absorbance; activity change, negative = inhibition: at 108 µM (top of the series) unless noted.
Outline: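 Purified human 12hLO at 150 nM in 25 mM Hepes, 0.01% Triton X-100, pH 7.0, preincubated 15 min at room temperature with compound. Reaction started with 40 uM arachidonic acid, 30 min at room temperature. Hydroperoxide measured by Fe-xylenol orange, 573/405 nm absorbance ratio.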
On the % scale 0 is the no-effect control and ±100 the full control effect; potency means the concentration at half of the fitted maximal effect.

Amino acid sequences for entries named in this document (tags omitted). A change or cut given only in a name is not applied to a line headed by its entry.
UniProt P18054: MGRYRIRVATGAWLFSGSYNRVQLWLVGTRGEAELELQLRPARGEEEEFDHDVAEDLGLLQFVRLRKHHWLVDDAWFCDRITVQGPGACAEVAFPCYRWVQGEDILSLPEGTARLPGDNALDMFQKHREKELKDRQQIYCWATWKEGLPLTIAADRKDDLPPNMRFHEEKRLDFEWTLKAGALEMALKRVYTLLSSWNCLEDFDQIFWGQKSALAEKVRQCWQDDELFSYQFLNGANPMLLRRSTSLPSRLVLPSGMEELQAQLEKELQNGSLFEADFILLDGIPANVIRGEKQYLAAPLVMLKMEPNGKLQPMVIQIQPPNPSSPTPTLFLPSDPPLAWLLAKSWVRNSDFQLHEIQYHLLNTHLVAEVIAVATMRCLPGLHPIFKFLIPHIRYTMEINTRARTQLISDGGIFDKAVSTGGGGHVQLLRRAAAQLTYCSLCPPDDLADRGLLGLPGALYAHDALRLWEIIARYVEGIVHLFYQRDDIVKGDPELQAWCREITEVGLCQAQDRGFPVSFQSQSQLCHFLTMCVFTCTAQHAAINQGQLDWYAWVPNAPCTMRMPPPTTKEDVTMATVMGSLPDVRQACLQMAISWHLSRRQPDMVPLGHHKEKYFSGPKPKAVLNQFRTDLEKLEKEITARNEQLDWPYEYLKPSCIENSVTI

Row | SMILES | Potency | activity change, negative = inhibition
1 | Cc1ccc2c(=O)cc(C(=O)NCC(c3cccs3)N3CCCC3)oc2c1 (configuration not stated) | inconclusive: 50.1 µM [inhibitor, single point] | 
2 | O=C(CC1Sc2ccccc2NC1=O)OCc1cc(=O)oc2cc(O)ccc12 (configuration not stated) | inconclusive: 44.7 µM [inhibitor, partial curve] | 
3 | O=C(COc1ccccc1)N1CCC(c2n[nH]c(=O)n2Cc2ccc(F)cc2)CC1 | inconclusive: 44.7 µM [inhibitor, partial curve] | 
4 | O=C(c1ccc2cccnc2c1O)N1CCCC(CCc2ccccc2F)C1 (configuration not stated) | inactive | 
5 | Cn1nccc1CN1CCn2c(nn(-c3ccc(C(F)(F)F)cc3)c2=O)C1 |  | inactive: 9.29% [at 6.33 µM]
6 | Cc1ccc(-n2nnc(-c3cccnc3Cl)n2)cc1 | inconclusive: 50.1 µM [inhibitor, partial curve, poor fit] | 
7 | CCOc1cccc(C(=O)NC(=S)Nc2cccnc2)c1 | inactive | 
8 | O=C1CCCC/C1=C/Nc1ccc2c(c1)OCO2 | inconclusive: 100 µM [inhibitor, partial curve, poor fit] | 
9 | O=C(Nc1cc(Cl)cc(Cl)c1)c1cc(S(=O)(=O)N2CCC3(CC2)OCCO3)ccc1F | inactive | 
10 | O=C(COC(=O)CC(c1ccccc1)c1ccccc1)Nc1ccc(N2CCOCC2)cc1 | inconclusive: 31.6 µM [inhibitor, partial curve, poor fit] | 
11 | CCOC(=O)/C(C#N)=C1/SC(C)C(=O)N1c1ccc(Br)cc1 (configuration not stated) | inconclusive: 44.7 µM [inhibitor, partial curve, poor fit] | 
12 | CC(C)c1ccc(Cn2ccc3c4c(N)nc(NC5CC5)nc4ccc32)cc1 | inconclusive: 5.62 µM [inhibitor, full curve, poor fit] and active: 21.7 µM | 
13 | CC(C)(C)C(=O)N1CCN(c2ccc3c(c2)C2CC3CCN2C(=O)OCc2ccccc2)CC1 (configuration not stated) | inconclusive: 112 µM [inhibitor, single point] | 
14 | C=CCNC(=S)Nc1ccc(C(N)=O)cc1 | inactive | 
15 | COCCn1cnc2c1c(=O)n(CC(=O)Nc1c(C)cc(C)cc1C)c(=O)n2CC(C)C | inconclusive: 100 µM [inhibitor, single point] | 
16 | COc1ccc(C(=O)c2c3ccc(OC)cc3[n+]([O-])n2CCCC(N)=O)cc1 | inactive | 
17 | COC(=O)[C@@H](CCSC)NC(=O)Nc1ccc(OC)c(Cl)c1 | inconclusive: 50.1 µM [inhibitor, single point] | 
18 | COc1ccc(C(=O)c2sc(Nc3ccccc3)c(C(N)=O)c2N)cc1 | active: 15.8 µM | 
19 | COc1ccc(/C=N/NC(=O)c2ccc3nc[nH]c3c2)cc1OC | inactive | 
20 | O=c1c(-c2cccc(Cl)c2)nc2cncnc2n1Cc1ccc(F)cc1 | inconclusive: 44.7 µM [inhibitor, partial curve, poor fit] | 
21 | Cc1nc2sc(C(c3cccs3)N3CCN(Cc4ccccc4)CC3)c(O)n2n1 (configuration not stated) | inactive | 
22 | CCCCC1(COC(=O)CCC(=O)O)C(=O)N(c2ccccc2)N(c2ccccc2)C1=O | inactive | 
23 | CCSc1ccc2nnc(-c3cccs3)n2n1 | inconclusive: 100 µM [inhibitor, single point] | 

Row | SMILES | Potency | activity change, negative = inhibition
24 | CCCCNC(=S)NNC(=O)c1csc2ccccc12 | inactive | 
25 | CN(C)CCCNc1nc(-c2ccco2)c2c(c1C#N)CCCC2 | inconclusive: 7.08 µM [inhibitor, partial curve, poor fit] | 
26 | Cc1ccc(S(=O)(=O)NC(c2ccccc2)c2ccccn2)s1 (configuration not stated) | inconclusive: 141 µM [inhibitor, single point] | 
27 | COc1ccc(NC2CCCN(C(=O)CN3CCOC3=O)C2)cc1 (configuration not stated) | inconclusive: 56.2 µM [inhibitor, partial curve, poor fit] | 
28 | CN1CCCN(C2C3CC4CC(C3)CC2C4)CC1 (configuration not stated) | inconclusive: 1.12 µM [inhibitor, full curve, poor fit] | 
29 | CC1=C[C@@H](CNC(=O)COCC(=O)O)[C@H](C(C)C)C[C@H]1CC(=O)N1CCCC1 | inconclusive: 56.2 µM [inhibitor, partial curve] | 
30 | FC(F)(F)c1ccc(Cl)c(N/N=C/c2c(Cl)cccc2Cl)c1 | inconclusive: 17.8 µM [inhibitor, full curve] | 
31 | COc1cc(OC)c(C2CC(=O)N3CN(C)CSC3=C2C#N)cc1OC (configuration not stated) | active: 15.8 µM | 
32 | CN(C)c1ccc(/C=N/Nc2cccc(C(=O)O)c2)cc1 | inconclusive: 22.4 µM [inhibitor, full curve, poor fit] | 
33 | S=C1NC2(CCCCC2)N=C1c1ccccc1 | inactive | 
34 | COc1ccc(CNCc2cccc(Oc3ccccc3)c2)cc1 | inconclusive: 1 µM [inhibitor, full curve, poor fit] | 
35 | COc1ccc(/C(=C\C(=O)O)c2nccc3cc(OC)c(OC)cc23)cc1OC | inconclusive: 70.8 µM [inhibitor, partial curve, poor fit] | 
36 | COc1ccc(C(=O)Nc2oc3ccc(Cl)cc3c(=O)c2-c2ccccc2)cc1OC | inconclusive: 50.1 µM [inhibitor, partial curve, poor fit] | 
37 | O=C1Nc2ccccc2CC12CCN(Cc1cccc3ccccc13)C2 (configuration not stated) | active: 100 µM | 
38 | CCCCCCCCN1C(=O)[C@H](CC(=O)NCc2cccc(C(F)(F)F)c2)C[C@@]2(C(=O)OCC)CCC=C12 | inconclusive: 7.94 µM [inhibitor, full curve, poor fit] | 
39 | Cc1ccnc(NC(c2ccsc2)c2ccc3ccc(C)nc3c2O)c1 (configuration not stated) | inconclusive: 89.1 µM [inhibitor, partial curve, poor fit] | 
40 | CCCCC(c1nnnn1CS(=O)(=O)c1ccc(C)cc1)N1CCN(C)CC1 (configuration not stated) | inconclusive: 31.6 µM [inhibitor, partial curve] | 
41 | Cc1ccc(N2CC(C(=O)Nc3ccccn3)CC2=O)cc1 (configuration not stated) | inconclusive: 3.16 µM [inhibitor, full curve, poor fit] | 
42 | O=CNC12CCC3CC(CC(C3)C1)C2 | inactive | 
43 | CC(=O)Nc1ccc2nc(SCc3ccc(Cl)cc3)sc2c1 | active: 20 µM | 
44 | CCOCCCNC(=O)CSCc1ccc(C)cc1 | inconclusive: 112 µM [inhibitor, single point] | 
45 | Cc1ccc(CN2CCC3(Cc4ccccc4NC3=O)C2)cc1 (configuration not stated) | inconclusive: 20 µM [inhibitor, full curve] | 
46 | COc1ccc(-c2noc([C@@H]3CCCN3C(=O)COc3cccc(C)c3)n2)cc1OC | inconclusive: 70.8 µM [inhibitor, partial curve] | 

Row | SMILES | Potency | activity change, negative = inhibition
47 | CC(=O)Nc1cc(NC(C)=O)cc(C(=O)OC(C)C(=O)Nc2ccc(S(=O)(=O)N3CCCC3)cc2)c1 (configuration not stated) | inconclusive: 6.31 µM [inhibitor, full curve, poor fit] | 
48 | CCOC(=O)c1cccc(NC(=O)CCn2nnc3ccccc32)c1 | inconclusive: 112 µM [inhibitor, partial curve, poor fit] | 
49 | COc1ccc(-c2cc(C(=O)NCc3ccco3)c3ccccc3n2)c(OC)c1 | inconclusive: 50.1 µM [inhibitor, partial curve] | 
50 | CCCCn1nnnc1C(c1ccccc1)N1CCN(CCN2CCOCC2)CC1 (configuration not stated) | inconclusive: 50.1 µM [inhibitor, single point] | 
51 | CC(C)N1CC2CCC(C1)N2Cc1ccc(-c2ccsc2)cc1 |  | inactive: 5.38% [at 6.33 µM]
52 | Cc1[nH]c2ccc(Cl)cc2c1C(=O)CCl | inactive | 
53 | COc1ccc(-n2c(=O)c3c4c(sc3n(Cc3ccc(C(C)(C)C)cc3)c2=O)CCC4)c(OC)c1 | inconclusive: 126 µM [inhibitor, partial curve, poor fit] | 
54 | COc1cccc(Cn2cnc3c(sc4nc(C)cc(C)c43)c2=O)c1 | inconclusive: 100 µM [inhibitor, partial curve, poor fit] | 
55 | Cc1ccc(Cl)cc1N1CCN(C(=O)c2ccc3c(c2)N(Cc2ccccc2)CCS3)CC1 | inactive | 
56 | Cc1ccc(NC(=O)CNCCCN2CCOCC2)cc1S(=O)(=O)N1CCCCC1 | inactive | 
57 | C[S+](=O)([O-])N1Cc2ccccc2CC2(CCCN(CC3CCNCC3)C2)C1 (configuration not stated) | inconclusive: 7.08 µM [inhibitor, full curve, poor fit] | 
58 | COc1ccc(Oc2c(C)oc3cc(OCC(=O)NC4CCS(=O)(=O)C4)ccc3c2=O)cc1 (configuration not stated) | inconclusive: 126 µM [inhibitor, partial curve, poor fit] | 
59 | Cc1sc(NC(=O)CC(C)C)c(C#N)c1C | inconclusive: 35.5 µM [inhibitor, partial curve, poor fit] | 
60 | COc1ccc(OC)c2[nH]c(C(=O)NC(C)C(=O)Nc3nc(C)cs3)cc12 (configuration not stated) | inconclusive: 39.8 µM [inhibitor, single point] | 
61 | Cc1cccc(C(=O)NC(c2cccnc2)c2ccc(C)c(C)c2)c1 (configuration not stated) | inactive | 
62 | O=C(CSc1nnnn1C1CC1)N1CCN(S(=O)(=O)c2ccc3c(c2)CCC3)CC1 | inconclusive: 100 µM [inhibitor, partial curve, poor fit] | 
63 | CCCCC(c1nnnn1CC1CCCO1)N1CCN(Cc2ccccc2)CC1 (configuration not stated) | inconclusive: 28.2 µM [inhibitor, single point] | 
64 | O=C(CN1CCN(S(=O)(=O)N2CCCCCC2)CC1)Nc1ccc(F)cc1 | inactive | 
65 | CN1C(=O)C(O)(CC(=O)/C=C/c2ccco2)c2ccccc21 (configuration not stated) | inactive | 
66 | O=C(CSc1nc(=O)n(Cc2ccco2)c2c1CCC2)NCc1ccc(Cl)cc1 | inconclusive: 141 µM [inhibitor, partial curve, poor fit] | 
67 | CN(C)c1ccc(CN2CCCC3(CC(c4ccccn4)=NO3)C2)cc1 (configuration not stated) |  | inactive: 5.24% [at 6.33 µM]
